These are yes or no findings as the source states them, for the method shown. Binding seen in cells or lysates may run through a third protein. Here binding means that the protein was enriched with, or labelled near, the bait; the list need not be complete. Where a sequence is shown, tags or fusion partners need not be part of it.
How the values were obtained:
Assay in all cases: affinity purification with mass spectrometry; 3×FLAG- or 13×myc-tagged bait purified from S. pombe cell extract on α-FLAG (M2) or α-myc (9E10) antibody cross-linked to Protein G Dynabeads, 4°C for 3 h, IP buffer (20 mM HEPES pH 7.5, 100 mM NaCl, 5 mM MgCl2, 1 mM EDTA, 10% glycerol, 0.25% Triton X-100, 0.5 mM DTT); LC-MS/MS; Red1-3×FLAG also from iss10Δ, rmn1Δ and Mtl1 knockdown cells
[1] = target: T1, Red5-3×FLAG (S. pombe) (UniProt O74823)
T1 sequence: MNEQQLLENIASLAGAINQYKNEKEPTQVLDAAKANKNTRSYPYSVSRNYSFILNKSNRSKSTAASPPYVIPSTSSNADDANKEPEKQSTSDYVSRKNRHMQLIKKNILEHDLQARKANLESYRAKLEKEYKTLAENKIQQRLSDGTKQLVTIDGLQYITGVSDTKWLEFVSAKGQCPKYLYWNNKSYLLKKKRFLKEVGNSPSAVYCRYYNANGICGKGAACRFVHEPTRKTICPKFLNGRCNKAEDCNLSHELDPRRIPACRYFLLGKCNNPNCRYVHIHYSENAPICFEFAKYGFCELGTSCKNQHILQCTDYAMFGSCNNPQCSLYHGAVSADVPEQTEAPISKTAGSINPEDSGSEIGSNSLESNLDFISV

[2] = target: T2, Mtl1-3×FLAG (S. pombe) (UniProt O13799)
T2 sequence: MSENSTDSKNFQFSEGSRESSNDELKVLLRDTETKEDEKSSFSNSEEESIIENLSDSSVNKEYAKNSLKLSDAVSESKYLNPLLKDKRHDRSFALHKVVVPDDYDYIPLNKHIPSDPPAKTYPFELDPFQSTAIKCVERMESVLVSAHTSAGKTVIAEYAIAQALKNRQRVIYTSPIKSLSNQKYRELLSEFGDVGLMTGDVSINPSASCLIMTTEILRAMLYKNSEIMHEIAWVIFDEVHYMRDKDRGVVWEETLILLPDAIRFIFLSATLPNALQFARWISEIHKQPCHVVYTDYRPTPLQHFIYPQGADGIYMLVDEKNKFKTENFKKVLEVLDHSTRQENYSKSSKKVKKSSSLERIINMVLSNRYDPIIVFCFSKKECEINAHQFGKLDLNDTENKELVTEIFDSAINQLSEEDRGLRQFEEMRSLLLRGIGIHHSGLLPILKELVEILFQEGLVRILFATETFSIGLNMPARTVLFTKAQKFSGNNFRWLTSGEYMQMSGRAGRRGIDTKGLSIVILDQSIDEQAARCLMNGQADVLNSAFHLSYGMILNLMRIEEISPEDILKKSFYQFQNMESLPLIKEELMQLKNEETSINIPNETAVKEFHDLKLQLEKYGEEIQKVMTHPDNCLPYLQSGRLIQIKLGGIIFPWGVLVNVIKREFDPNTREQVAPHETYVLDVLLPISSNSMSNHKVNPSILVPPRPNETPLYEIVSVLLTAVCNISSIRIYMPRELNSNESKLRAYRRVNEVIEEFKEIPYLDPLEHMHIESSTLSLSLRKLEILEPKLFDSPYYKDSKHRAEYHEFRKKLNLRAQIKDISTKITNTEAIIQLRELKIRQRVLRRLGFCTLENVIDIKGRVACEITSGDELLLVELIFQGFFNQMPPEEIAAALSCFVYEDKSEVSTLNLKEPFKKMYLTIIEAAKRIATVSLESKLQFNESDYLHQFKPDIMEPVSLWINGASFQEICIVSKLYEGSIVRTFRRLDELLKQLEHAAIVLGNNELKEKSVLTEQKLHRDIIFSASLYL

[3] = target: T3, Red1-3×FLAG (S. pombe) (UniProt Q9UTR8)
T3 sequence: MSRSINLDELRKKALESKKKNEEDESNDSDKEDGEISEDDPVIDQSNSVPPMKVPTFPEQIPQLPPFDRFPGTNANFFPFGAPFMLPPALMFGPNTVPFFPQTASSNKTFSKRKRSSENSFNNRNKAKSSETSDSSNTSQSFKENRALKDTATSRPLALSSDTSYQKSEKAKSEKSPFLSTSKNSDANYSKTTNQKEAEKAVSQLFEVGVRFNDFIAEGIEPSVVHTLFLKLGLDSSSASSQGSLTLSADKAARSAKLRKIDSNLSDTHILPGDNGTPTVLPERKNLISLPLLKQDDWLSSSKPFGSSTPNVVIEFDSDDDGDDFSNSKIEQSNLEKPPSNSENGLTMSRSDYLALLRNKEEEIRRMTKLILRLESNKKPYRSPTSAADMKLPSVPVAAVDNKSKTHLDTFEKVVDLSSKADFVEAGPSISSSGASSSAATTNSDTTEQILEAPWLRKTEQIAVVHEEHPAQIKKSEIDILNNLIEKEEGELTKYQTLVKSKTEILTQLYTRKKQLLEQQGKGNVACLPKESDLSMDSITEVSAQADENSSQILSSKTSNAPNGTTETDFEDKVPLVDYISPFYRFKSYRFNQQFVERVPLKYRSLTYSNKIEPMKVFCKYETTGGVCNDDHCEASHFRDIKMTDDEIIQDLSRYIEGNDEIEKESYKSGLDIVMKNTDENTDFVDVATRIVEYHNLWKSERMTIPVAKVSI

[4] = target: T4, Ars2-3×FLAG (S. pombe) (UniProt O94326)
T4 sequence: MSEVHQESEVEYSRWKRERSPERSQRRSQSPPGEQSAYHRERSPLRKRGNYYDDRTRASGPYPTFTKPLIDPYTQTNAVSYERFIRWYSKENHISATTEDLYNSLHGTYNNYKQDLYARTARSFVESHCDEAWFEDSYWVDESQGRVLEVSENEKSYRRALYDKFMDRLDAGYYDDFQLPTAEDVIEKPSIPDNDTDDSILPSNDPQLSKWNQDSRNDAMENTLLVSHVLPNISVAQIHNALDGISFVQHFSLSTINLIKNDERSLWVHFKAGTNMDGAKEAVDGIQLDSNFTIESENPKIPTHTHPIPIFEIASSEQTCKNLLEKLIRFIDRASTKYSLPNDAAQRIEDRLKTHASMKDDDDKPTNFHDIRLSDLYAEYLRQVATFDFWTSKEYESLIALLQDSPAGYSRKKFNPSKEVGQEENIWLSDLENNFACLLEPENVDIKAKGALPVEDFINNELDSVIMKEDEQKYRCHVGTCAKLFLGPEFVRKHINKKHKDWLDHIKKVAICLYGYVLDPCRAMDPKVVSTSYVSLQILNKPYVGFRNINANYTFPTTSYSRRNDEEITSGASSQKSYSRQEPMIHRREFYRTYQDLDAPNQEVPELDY

[5] = target: T5, Rmn1-13×myc (S. pombe) (UniProt Q9USP9)
T5 sequence: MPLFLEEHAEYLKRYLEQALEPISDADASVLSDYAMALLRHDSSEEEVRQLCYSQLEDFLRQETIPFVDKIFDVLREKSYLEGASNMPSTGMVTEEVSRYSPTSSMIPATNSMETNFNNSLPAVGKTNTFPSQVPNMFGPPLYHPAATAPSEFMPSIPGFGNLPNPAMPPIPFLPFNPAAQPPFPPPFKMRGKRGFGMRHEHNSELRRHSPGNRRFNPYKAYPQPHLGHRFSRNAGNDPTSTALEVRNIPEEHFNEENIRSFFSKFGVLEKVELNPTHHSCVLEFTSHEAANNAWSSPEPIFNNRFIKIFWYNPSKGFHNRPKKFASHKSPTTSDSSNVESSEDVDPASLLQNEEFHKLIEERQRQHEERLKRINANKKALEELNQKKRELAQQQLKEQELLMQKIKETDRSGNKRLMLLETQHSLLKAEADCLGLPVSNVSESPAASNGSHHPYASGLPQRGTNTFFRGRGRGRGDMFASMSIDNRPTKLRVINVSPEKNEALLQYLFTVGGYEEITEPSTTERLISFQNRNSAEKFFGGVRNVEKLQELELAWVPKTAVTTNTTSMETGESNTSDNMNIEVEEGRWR

Measured: binding

B1: Rmn1-13×myc (protein, UniProt Q9USP9 1-589)
chain: MPLFLEEHAEYLKRYLEQALEPISDADASVLSDYAMALLRHDSSEEEVRQLCYSQLEDFLRQETIPFVDKIFDVLREKSYLEGASNMPSTGMVTEEVSRYSPTSSMIPATNSMETNFNNSLPAVGKTNTFPSQVPNMFGPPLYHPAATAPSEFMPSIPGFGNLPNPAMPPIPFLPFNPAAQPPFPPPFKMRGKRGFGMRHEHNSELRRHSPGNRRFNPYKAYPQPHLGHRFSRNAGNDPTSTALEVRNIPEEHFNEENIRSFFSKFGVLEKVELNPTHHSCVLEFTSHEAANNAWSSPEPIFNNRFIKIFWYNPSKGFHNRPKKFASHKSPTTSDSSNVESSEDVDPASLLQNEEFHKLIEERQRQHEERLKRINANKKALEELNQKKRELAQQQLKEQELLMQKIKETDRSGNKRLMLLETQHSLLKAEADCLGLPVSNVSESPAASNGSHHPYASGLPQRGTNTFFRGRGRGRGDMFASMSIDNRPTKLRVINVSPEKNEALLQYLFTVGGYEEITEPSTTERLISFQNRNSAEKFFGGVRNVEKLQELELAWVPKTAVTTNTTSMETGESNTSDNMNIEVEEGRWR
binds: [1] | [2] | [3]

B2: Mtl1-3×FLAG (protein, UniProt O13799 1-1030)
chain: MSENSTDSKNFQFSEGSRESSNDELKVLLRDTETKEDEKSSFSNSEEESIIENLSDSSVNKEYAKNSLKLSDAVSESKYLNPLLKDKRHDRSFALHKVVVPDDYDYIPLNKHIPSDPPAKTYPFELDPFQSTAIKCVERMESVLVSAHTSAGKTVIAEYAIAQALKNRQRVIYTSPIKSLSNQKYRELLSEFGDVGLMTGDVSINPSASCLIMTTEILRAMLYKNSEIMHEIAWVIFDEVHYMRDKDRGVVWEETLILLPDAIRFIFLSATLPNALQFARWISEIHKQPCHVVYTDYRPTPLQHFIYPQGADGIYMLVDEKNKFKTENFKKVLEVLDHSTRQENYSKSSKKVKKSSSLERIINMVLSNRYDPIIVFCFSKKECEINAHQFGKLDLNDTENKELVTEIFDSAINQLSEEDRGLRQFEEMRSLLLRGIGIHHSGLLPILKELVEILFQEGLVRILFATETFSIGLNMPARTVLFTKAQKFSGNNFRWLTSGEYMQMSGRAGRRGIDTKGLSIVILDQSIDEQAARCLMNGQADVLNSAFHLSYGMILNLMRIEEISPEDILKKSFYQFQNMESLPLIKEELMQLKNEETSINIPNETAVKEFHDLKLQLEKYGEEIQKVMTHPDNCLPYLQSGRLIQIKLGGIIFPWGVLVNVIKREFDPNTREQVAPHETYVLDVLLPISSNSMSNHKVNPSILVPPRPNETPLYEIVSVLLTAVCNISSIRIYMPRELNSNESKLRAYRRVNEVIEEFKEIPYLDPLEHMHIESSTLSLSLRKLEILEPKLFDSPYYKDSKHRAEYHEFRKKLNLRAQIKDISTKITNTEAIIQLRELKIRQRVLRRLGFCTLENVIDIKGRVACEITSGDELLLVELIFQGFFNQMPPEEIAAALSCFVYEDKSEVSTLNLKEPFKKMYLTIIEAAKRIATVSLESKLQFNESDYLHQFKPDIMEPVSLWINGASFQEICIVSKLYEGSIVRTFRRLDELLKQLEHAAIVLGNNELKEKSVLTEQKLHRDIIFSASLYL
binds: [1] | [4] | [5]

Reference: article PMC4024641
